Reference: PubChem BioAssay AID1487 (National Center for Advancing Translational Sciences (NCATS), 2009)
The list shows a part of the results. Further columns of the screen follow, without active or inactive calls. Most of these compounds were active or inconclusive in the main read-out, so they are no random draw. Potencies come from curve fits of mixed quality, noted in brackets.

Experiment: qHTS Assay for Modulators of Lamin A Splicing
Details: HeLa LMNA splicing GFP/RFP minigene ratio, 48 h
Method in brief: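 S3 HeLa stable clones carrying a lamin A-EGFP splicing minigene plus DsRed2 were seeded at 600 cells/well in Opti-MEM with 2% FBS, pin-dosed and incubated 48 h at 37°C. Acumen cytometry (488 nm) gave the GFP/RFP total-intensity ratio.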

[1] = measured here: RFP viability control channel
[2] = measured here: GFP splicing reporter channel

For `COCCNc1ccc(S(=O)(=O)N2CCCC2)cc1[N+](=O)[O-]`, the AC50 [1] was 17.8 µM [rising, single point].

With `Cn1c(=O)[nH]c(=O)c2c1nc(Br)n2CCCCSc1nc2ccccc2o1` the AC50 [2] was 22.4 µM [rising, single point] and the AC50 [1] was 17.8 µM [rising, single point].

With `CC1(C)CC2CC(C)(CN2C(=O)COC(=O)c2ccc(Cl)cc2N)C1` (stereo not given) the AC50 [1] was 22.4 µM [rising, single point].

With `C(#Cc1ccccc1)C[N+]1(CC#Cc2ccccc2)CCCC1` the AC50 [2] was 11.2 µM [rising, partial curve] and the AC50 [1] was 22.4 µM [rising, partial curve].

For `COc1ccc(Cl)cc1NC(=O)C(C)N1CCc2ccccc21` (stereo not given), the AC50 [2] was 0.0631 µM [rising, full curve, poor fit].

With `CCCCn1c(NC(=O)c2ccccc2Cl)c(C#N)c2nc3ccccc3nc21` the AC50 [2] was 17.8 µM [falling, single point] and the AC50 [1] was 31.6 µM [falling, single point].

With `Clc1ccc(N2CCN(Cc3c[nH]c4ncccc34)CC2)cc1` the AC50 [1] was 0.00501 µM [falling, full curve, poor fit].

In the case of `COc1cc(OC)cc(C(=O)Nn2cc(C(=O)Nc3c(F)cccc3F)c3ccccc3c2=O)c1`, the AC50 [2] is reported as 35.5 µM [rising, single point] and the AC50 [1] is reported as 35.5 µM [rising, single point].

For `Cc1cc(C(=O)CSc2nc(N)cc(=O)[nH]2)c(C)n1-c1cccc(F)c1`, the AC50 [2] was 1 µM [rising, single point] and the AC50 [1] was 3.16 µM [rising, full curve].

For `CCS(=O)(=O)N1CCC(c2nc(-c3ccc(C)cc3)no2)CC1`, the AC50 [1] was 12.6 µM [rising, partial curve].

With `O=C(NCc1ccco1)C(=O)NCC1OCCN1S(=O)(=O)c1ccc(Cl)cc1` (stereo not given) the AC50 [2] was 0.708 µM [falling, single point].

With `Cc1c(Cl)cccc1NC(=S)N1CCC(C(N)=O)(N2CCCCC2)CC1` the AC50 [2] was 12.6 µM [rising, single point].

In the case of `Cc1ccc(-n2nnnc2SCC(=O)N(CC(C)C)c2c(N)n(CC(C)C)c(=O)[nH]c2=O)cc1`, the AC50 [2] is reported as 0.00316 µM [rising, full curve, poor fit].

With `Cc1ccc(S(=O)(=O)N2N=C3CCCCC3C2(O)C(F)(F)F)cc1` (stereo not given) the AC50 [2] was 0.00447 µM [rising, full curve, poor fit] and the AC50 [1] was 0.00398 µM [rising, full curve, poor fit].

With `CC1CCN(S(=O)(=O)N2CCC(C(=O)NCc3ccc4c(c3)OCO4)CC2)CC1` the AC50 [2] was 35.5 µM [rising, single point] and the AC50 [1] was 35.5 µM [rising, single point].

In the case of `O=C(Nc1ccc(Cl)cc1)Nc1nnc(CSCc2ccccc2Cl)s1`, the AC50 [2] is reported as 17.8 µM [rising, single point] and the AC50 [1] is reported as 35.5 µM [rising, single point].

For `NS(=O)(=O)c1ccc(CCN2C(=O)/C(=C\c3ccc(Cl)cc3)SC2=S)cc1`, the AC50 [1] was 12.6 µM [rising, partial curve].

With `COc1ccc(N2CC(NC(=O)C3CC3)CC2=O)cc1` (stereo not given) the AC50 [1] was 25.1 µM [falling, single point].

With `COc1cccc(NC(=O)CSc2nc(=O)n(Cc3ccccn3)c3c2CCC3)c1` the AC50 [2] was 3.16 µM [falling, partial curve, poor fit].

With `COCc1nc(-c2ccc(-c3ccc(C)cc3)nc2OC)no1` the AC50 [2] was 11.2 µM [rising, single point] and the AC50 [1] was 10 µM [rising, single point].

For `Cc1c(O)c2c3c(cccc3c1O)C(=O)N(c1ccccc1)C2=O`, the AC50 [1] was 35.5 µM [rising, partial curve].

With `CC1CCCCN1C(=O)COC(=O)/C=C/c1ccc2ccccc2n1` (stereo not given) the AC50 [2] was 22.4 µM [falling, single point].

For `COc1ccc(N(C)S(=O)(=O)c2cccc(C(=O)NCc3ccc4c(c3)OCO4)c2)cc1`, the AC50 [2] was 12.6 µM [falling, partial curve, poor fit] and the AC50 [1] was 35.5 µM [falling, partial curve, poor fit].

For `Cc1ccc(S(=O)(=O)NCCC(C)C)cc1[N+](=O)[O-]`, the AC50 [2] was 10 µM [rising, partial curve, poor fit].

In the case of `CC(C)Cc1nc2oc3c(NCc4cccnc4)ncnc3c2c2c1CCC2`, the AC50 [2] is reported as 3.55 µM [rising, single point] and the AC50 [1] is reported as 5.62 µM [rising, single point].

With `CCCN(CCC)C(=O)C1CCN(c2cc(C)nc3c(-c4ccc(OC)c(OC)c4)c(C)nn23)CC1` the AC50 [1] was 2.24 µM [rising, partial curve, poor fit].

For `Cc1c(C(=O)NCc2ccoc2)oc2ccc3c(c12)C(=O)CC(C)(C)O3`, the AC50 [1] was 11.2 µM [rising, partial curve].

For `COc1ccc(C(C)=O)cc1CSc1nnc(Nc2ccc(C)cc2)s1`, the AC50 [1] was 14.1 µM [rising, single point].

With `CCOC(=O)c1[nH]c(C)c(CCC(=O)Nc2cccc(C(F)(F)F)c2)c1C` the AC50 [2] was 11.2 µM [rising, partial curve, poor fit].

With `Cc1ccccc1SCC(=O)N1CCN(c2ccc(C(F)(F)F)cn2)CC1` the AC50 [1] was 25.1 µM [rising, partial curve].

For `CCN(CC)c1ccc(-c2nn3c(-c4cccnc4)nnc3s2)cc1`, the AC50 [2] was 11.2 µM [falling, partial curve] and the AC50 [1] was 12.6 µM [falling, partial curve].

With `COc1ccc(N2C(=O)/C(=C\c3ccco3)N=C2SCC(=O)NC(C)C)cc1Cl` the AC50 [1] was 31.6 µM [rising, partial curve, poor fit].

With `COc1ccc(/C=C/c2nc(-c3ccccc3O)n[nH]2)cc1` the AC50 [1] was 22.4 µM [rising, single point].

With `CCOC(=O)c1c(CSc2ccccc2)oc2ccc(O)cc12` the AC50 [2] was 6.31 µM [rising, full curve] and the AC50 [1] was 14.1 µM [rising, partial curve].

With `CN1CCN(C(=O)c2cc3ccccc3oc2=O)CC1` the AC50 [2] was 0.794 µM [falling, full curve, poor fit] and the AC50 [1] was 0.501 µM [falling, full curve, poor fit].

In the case of `Cc1ccc(C(=O)NCC(c2ccco2)S(=O)(=O)c2ccccc2)cc1C` (stereo not given), the AC50 [2] is reported as 0.0251 µM [rising, full curve, poor fit] and the AC50 [1] is reported as 0.0251 µM [rising, full curve, poor fit].

For `Cc1ccc(C(=O)Nn2c(O)c(C=C3N=c4ccccc4=N3)sc2=S)cc1`, the AC50 [1] was 25.1 µM [falling, single point].

With `CC(/C=N\NC(=O)Cn1c(C)nc2ccccc21)=C\c1ccccc1` the AC50 [2] was 35.5 µM [falling, single point] and the AC50 [1] was 35.5 µM [falling, single point].

With `Cc1nn(C)c(C(=O)Nc2cccc(CN3CCOCC3)c2)c1Br` the AC50 [1] was 7.94 µM [rising, partial curve].

For `Cc1ccc(NC(=O)COc2cccnc2[N+](=O)[O-])cc1S(=O)(=O)N1CCCCC1`, the AC50 [2] was 15.8 µM [rising, single point] and the AC50 [1] was 17.8 µM [rising, partial curve].

For `Cc1ccc(C2CC(c3ccccc3)=NN2C(=O)CSc2nnc(-c3ccncc3)n2C)o1` (stereo not given), the AC50 [2] was 20 µM [rising, single point].

With `O=C(Nc1ccc(Oc2cccnc2)cc1)c1cccc([N+](=O)[O-])c1` the AC50 [1] was 15.8 µM [rising, partial curve].

With `COc1ccc(C)cc1S(=O)(=O)N(C)CC(=O)N1CCC(C(N)=O)CC1` the AC50 [1] was 1.58 µM [falling, full curve].

With `Clc1ccccc1-c1nnc2sc(CCc3ccccc3)nn12` the AC50 [1] was 6.31 µM [rising, partial curve].

With `O=C(Cn1cnc2ccccc2c1=O)c1c[nH]c2ccccc12` the AC50 [2] was 35.5 µM [rising, single point] and the AC50 [1] was 35.5 µM [rising, single point].

With `OCCCNc1nc(-c2ccc(Br)cc2)nnc1-c1ccc(Cl)cc1` the AC50 [2] was 14.1 µM [rising, partial curve, poor fit] and the AC50 [1] was 22.4 µM [rising, partial curve].

In the case of `Cc1ccc(C(=O)N2CCN(c3ncnc4c(C)csc34)CC2)cc1`, the AC50 [2] is reported as 7.94 µM [falling, partial curve].

For `Cc1ccc(Cn2nnc3c(=O)n(Cc4ccccc4C)cnc32)cc1`, the AC50 [1] was 5.62 µM [rising, single point].

With `Cc1[nH]c(=S)sc1Cc1ccc(F)cc1` the AC50 [1] was 22.4 µM [rising, single point].

With `CCOC(=O)C1=C(C)Nc2nnnn2C1c1ccc(OC)c(Br)c1` (stereo not given) the AC50 [1] was 7.94 µM [rising, partial curve, poor fit].

In the case of `N[C@H](C(=O)N[C@@H]1C(=O)N2C(C(=O)O)=C(Cl)CS[C@@H]12)c1ccccc1`, the AC50 [2] is reported as 0.00398 µM [falling, full curve, poor fit].

In the case of `COc1cccc(-c2ccc3ncnc(NCCc4c[nH]c5ccc(OC)cc45)c3c2)c1`, the AC50 [2] is reported as 15.8 µM [falling, partial curve] and the AC50 [1] is reported as 17.8 µM [falling, partial curve].

With `CC(=O)NCCNc1ncnc2ccc(-c3ccccc3C)cc12` the AC50 [2] was 14.1 µM [falling, single point].

For `COc1ccc(-c2csc(NC(=S)NC(=O)/C=C/c3ccco3)n2)cc1OC`, the AC50 [1] was 2.51 µM [rising, partial curve].

With `Fc1ccc(-n2c(-c3ccc4ccccc4n3)n[nH]c2=S)cc1` the AC50 [2] was 2.82 µM [falling, full curve, poor fit].
